Measured values reported in publication PMC3587611.

Biological target: GST-Dullard protein harbouring the D69E mutation in the catalytic domain
Experiment: pull-down; GST-Dullard recombinant protein as bait; Myc-tagged Dvls from transfected HEK293 cells, detected by an anti-Myc antibody; two independent experiments

- binding: binds
B1: Myc-tagged Dvl2 (protein, UniProt Q60838 1-736)
chain: MAGSSAGGGGVGETKVIYHLDEEETPYLVKIPVPAERITLGDFKSVLQRPAGAKYFFKSMDQDFGVVKEEISDDNARLPCFNGRVVSWLVSSDTPQPEVAPPAHESRTELVPPPPPLPPLPPERTSGIGDSRPPSFHPNVSSSHENLEPETETESVVSLRRDRPRRRDSSEHGAGGHRPGGPSRLERHLAGYESSSTLMTSELESTSLGDSDEDDTMSRFSSSTEQSSASRLLKRHRRRRKQRPPRMERTSSFSSVTDSTMSLNIITVTLNMEKYNFLGISIVGQSNERGDGGIYIGSIMKGGAVAADGRIEPGDMLLQVNDMNFENMSNDDAVRVLRDIVHKPGPIVLTVAKCWDPSPQAYFTLPRNEPIQPIDPAAWVSHSAALTGAFPAYPGSSSMSTITSGSSLPDGCEGRGLSVHMDMASVTKAMAAPESGLEVRDRMWLKITIPNAFLGSDVVDWLYHHVEGFPERREARKYASGLLKAGLIRHTVNKITFSEQCYYVFGDLSGGCESYLVNLSLNDNDGSSGASDQDTLAPLPGATPWPLLPTFSYQYPAPHPYSPQPPPYHELSSYTYGGGSASSQHSEGSRSSGSTRSDGGAGRTGRPEERAPESKSGSGSESELSSRGGSLRRGGEPGGTGDGGPPPSRGSTGAPPNLRALPGLHPYGAPSGMALPYNPMMVVMMPPPPPPVSTAVQPPGAPPVRDLGSVPPELTASRQSFHMAMGNPSEFFVDVM

Results are given in words; binding and its absence hold for the method and conditions named. Binding seen in cells or lysates may run through a third protein. A result given as binding can be weak or reduced; the word gives no strength. Where a sequence is shown, tags or fusion partners need not be part of it.
